Results deposited as PubChem BioAssay AID1259254 (NCATS, 2017).
Aim: 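Gene knock-downs that lead to re-replication, shown by excess G2 DNA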 (primary screen). Cells: human HCT116 colorectal cancer cells. Knock-down reagent: single siRNA against human genes. Duration: 3 days. Measured: 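Nuclei stained with Hoechst and imaged; cell-cycle phase assigned by DNA content; G2 share scaled per plate, non-targeting siRNA 0%, GMNN siRNA 100%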. Scale: G2 robust z-score and G2 cells, % of GMNN control: higher = more G2 cells, more excess DNA replication; raw share of cells in G2: higher = larger share of cells with G2 DNA content. Call rule: 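An siRNA counts as active if its G2 robust z-score lies at least 5 MADs above the screen median; here such calls match roughly 38% of GMNN control or more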.
In all, the deposit lists about 59,000 reagents; shown is an unselected part. Of all reagents, about 1,550 (2.6%) got an active call. 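G2 share is only a proxy for re-replication; each gene was hit by three separate siRNAs, and active genes were retested.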 Raw values vary from plate to plate and are shown uncorrected. Unmarked entries are inactive. Reagents against one gene are numbered here. The record does not give: the amount of reagent.

| target | reagent | G2 robust z-score | G2 cells, % of GMNN control | raw share of cells in G2 (%) |
| --- | --- | --- | --- | --- |
| HLA-DRB1 (major histocompatibility complex, class II, DR beta 1) | 1 | -0.496 | -0.524 | 5.06 |
| HLA-DRB1 (major histocompatibility complex, class II, DR beta 1) | 2 | 2.93 | 23.6 | 12.7 |
| HLA-DRB1 (major histocompatibility complex, class II, DR beta 1) | 3 | -0.803 | -2.68 | 2.47 |
| NPR2 (natriuretic peptide receptor 2) | 1 | 0.000221 | 2.97 | 4.21 |
| NPR2 (natriuretic peptide receptor 2) | 2 | -0.138 | 2 | 5.56 |
| NPR2 (natriuretic peptide receptor 2) | 3 | 2.77 | 22.4 | 13.7 |
| HNRNPA1 (heterogeneous nuclear ribonucleoprotein A1) | 1 | 0.811 | 8.68 | 8.99 |
| HNRNPA1 (heterogeneous nuclear ribonucleoprotein A1) | 2 | -0.58 | -1.11 | 3.79 |
| HNRNPA1 (heterogeneous nuclear ribonucleoprotein A1) | 3 | 0.101 | 3.68 | 6.38 |
| CFAP36 (cilia and flagella associated protein 36) | 1 | 2.98 | 23.9 | 13.7 |
| CFAP36 (cilia and flagella associated protein 36) | 2 | -0.259 | 1.15 | 3.67 |
| CFAP36 (cilia and flagella associated protein 36) | 3 | -0.0614 | 2.54 | 2.56 |
| STK26 (serine/threonine kinase 26) | 1 | -1.21 | -5.58 | 3.85 |
| STK26 (serine/threonine kinase 26) | 2 | 0.00825 | 3.03 | 6.29 |
| STK26 (serine/threonine kinase 26) | 3 | -0.337 | 0.593 | 3.87 |
| HTR4 (5-hydroxytryptamine receptor 4) | 1 | 0.357 | 5.48 | 7.8 |
| HTR4 (5-hydroxytryptamine receptor 4) | 2 | -0.266 | 1.1 | 4.9 |
| HTR4 (5-hydroxytryptamine receptor 4) | 3 | 3.21 | 25.6 | 11.1 |
| CDIPT (CDP-diacylglycerol--inositol 3-phosphatidyltransferase) | 1 | -0.959 | -3.78 | 4.05 |
| CDIPT (CDP-diacylglycerol--inositol 3-phosphatidyltransferase) | 2 | -1.11 | -4.87 | 2.27 |
| CDIPT (CDP-diacylglycerol--inositol 3-phosphatidyltransferase) | 3 | -1.3 | -6.17 | 4.04 |
| MYO7B (myosin VIIB) | 1 | 1.39 | 12.7 | 10.3 |
| MYO7B (myosin VIIB) | 2 | -0.0742 | 2.45 | 4 |
| MYO7B (myosin VIIB) | 3 | 2.2 | 18.4 | 12.8 |
| SERPINB9 (serpin family B member 9) | 1 | -0.569 | -1.04 | 4.46 |
| SERPINB9 (serpin family B member 9) | 2 | -0.123 | 2.1 | 4.13 |
| SERPINB9 (serpin family B member 9) | 3 | -0.602 | -1.27 | 3.92 |
| BTRC | 1 | -0.675 | -1.78 | 4.64 |
| BTRC | 2 | -0.0693 | 2.48 | 5.66 |
| BTRC | 3 | 1.26 | 11.9 | 8.95 |
